No constants are given. Whether binding was seen depends on the method and setting. In cells and extracts the contact can be indirect. Some binding calls cover weakened binding; strength is not graded here.
Experiments:
Strep-DCAF11 (human) [1] = biological target: Strep-DCAF11 (human) (UniProt Q8TEB1); experiment: split reporter + pull-down
Strep-DCAF12L1 (human) [2] = biological target: Strep-DCAF12L1 (human) (UniProt Q5VU92); experiment: split reporter + pull-down
Strep-DDB1 (human) [3] = biological target: Strep-DDB1 (human) (UniProt Q16531); experiment: split reporter + pull-down
Strep-DCAF11 (human) [4] = biological target: Strep-DCAF11 (human) (UniProt Q8TEB1); experiment: pull-down
Strep-DCAF12L1 (human) [5] = biological target: Strep-DCAF12L1 (human) (UniProt Q5VU92); experiment: pull-down
Strep-DDB1 (human) [6] = biological target: Strep-DDB1 (human) (UniProt Q16531); experiment: pull-down
Gluc1-DCAF12L1 (human) = Gluc1-DCAF12L1 (human) (UniProt Q5VU92); experiment: split reporter + pull-down
Gluc1-DCAF11 (human) = Gluc1-DCAF11 (human) (UniProt Q8TEB1); experiment: split reporter + pull-down
[7] = biological target: PB2-Strep (expressed by recombinant H1N1WSN-PB2-Strep virus) (influenza A/WSN/33 virus (H1N1WSN)) (UniProt P03427); experiment: pull-down

Chains of the proteins cited; added tags and fusions are not shown. Lines headed by an entry give the natural chain unless they say otherwise; changes in a name come on top.
UniProt Q8TEB1: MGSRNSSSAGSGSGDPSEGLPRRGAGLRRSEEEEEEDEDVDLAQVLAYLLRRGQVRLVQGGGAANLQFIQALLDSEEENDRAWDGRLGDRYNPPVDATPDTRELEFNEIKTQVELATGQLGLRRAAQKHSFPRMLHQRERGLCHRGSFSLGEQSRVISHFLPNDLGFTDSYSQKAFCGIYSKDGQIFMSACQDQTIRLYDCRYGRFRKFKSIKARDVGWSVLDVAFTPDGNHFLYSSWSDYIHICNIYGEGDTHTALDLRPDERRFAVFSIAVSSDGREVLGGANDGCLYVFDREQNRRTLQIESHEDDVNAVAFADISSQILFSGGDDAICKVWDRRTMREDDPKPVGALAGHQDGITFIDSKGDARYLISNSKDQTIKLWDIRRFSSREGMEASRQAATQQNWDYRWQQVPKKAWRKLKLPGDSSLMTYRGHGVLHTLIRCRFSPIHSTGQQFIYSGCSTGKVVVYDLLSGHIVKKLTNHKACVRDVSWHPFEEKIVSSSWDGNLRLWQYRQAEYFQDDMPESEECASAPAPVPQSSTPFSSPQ
UniProt Q5VU92: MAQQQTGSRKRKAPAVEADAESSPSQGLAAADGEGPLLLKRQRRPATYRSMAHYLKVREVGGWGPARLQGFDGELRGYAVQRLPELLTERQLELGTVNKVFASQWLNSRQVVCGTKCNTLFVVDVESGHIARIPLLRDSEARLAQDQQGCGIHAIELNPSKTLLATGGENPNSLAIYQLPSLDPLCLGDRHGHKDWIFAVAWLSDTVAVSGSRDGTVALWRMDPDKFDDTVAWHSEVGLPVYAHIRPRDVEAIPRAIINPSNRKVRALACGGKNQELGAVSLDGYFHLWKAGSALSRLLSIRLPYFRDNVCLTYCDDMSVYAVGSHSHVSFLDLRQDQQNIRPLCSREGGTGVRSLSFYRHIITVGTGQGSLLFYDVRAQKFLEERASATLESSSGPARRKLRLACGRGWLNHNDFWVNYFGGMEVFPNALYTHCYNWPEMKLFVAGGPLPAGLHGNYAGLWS
UniProt Q16531: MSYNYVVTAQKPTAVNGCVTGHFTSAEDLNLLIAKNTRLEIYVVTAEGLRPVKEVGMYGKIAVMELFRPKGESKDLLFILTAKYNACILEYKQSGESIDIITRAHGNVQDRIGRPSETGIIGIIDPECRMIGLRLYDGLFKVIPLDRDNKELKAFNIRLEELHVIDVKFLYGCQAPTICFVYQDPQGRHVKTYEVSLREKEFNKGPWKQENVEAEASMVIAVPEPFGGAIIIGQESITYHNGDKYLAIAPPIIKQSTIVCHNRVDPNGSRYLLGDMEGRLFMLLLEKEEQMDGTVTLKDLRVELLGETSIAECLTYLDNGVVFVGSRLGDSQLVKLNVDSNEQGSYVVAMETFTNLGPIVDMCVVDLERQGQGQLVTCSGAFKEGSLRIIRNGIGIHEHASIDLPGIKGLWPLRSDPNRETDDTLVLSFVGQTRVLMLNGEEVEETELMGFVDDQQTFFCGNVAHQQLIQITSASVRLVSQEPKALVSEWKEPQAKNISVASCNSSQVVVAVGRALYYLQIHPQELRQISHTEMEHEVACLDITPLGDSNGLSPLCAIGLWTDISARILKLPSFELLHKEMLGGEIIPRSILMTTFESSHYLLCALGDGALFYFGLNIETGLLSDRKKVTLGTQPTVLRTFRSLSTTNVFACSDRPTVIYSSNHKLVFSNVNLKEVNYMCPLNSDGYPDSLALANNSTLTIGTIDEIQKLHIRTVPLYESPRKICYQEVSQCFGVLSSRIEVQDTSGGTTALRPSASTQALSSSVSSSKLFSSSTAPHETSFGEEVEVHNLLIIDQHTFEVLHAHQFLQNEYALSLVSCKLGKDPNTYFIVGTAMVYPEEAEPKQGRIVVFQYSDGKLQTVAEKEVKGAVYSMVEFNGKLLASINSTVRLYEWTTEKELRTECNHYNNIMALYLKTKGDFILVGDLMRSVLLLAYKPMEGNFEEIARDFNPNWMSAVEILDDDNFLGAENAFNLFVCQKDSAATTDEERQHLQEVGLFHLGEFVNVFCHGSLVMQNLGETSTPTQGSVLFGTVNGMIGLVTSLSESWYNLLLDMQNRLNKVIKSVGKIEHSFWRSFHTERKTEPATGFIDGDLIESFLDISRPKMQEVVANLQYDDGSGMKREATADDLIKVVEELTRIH
UniProt P03427: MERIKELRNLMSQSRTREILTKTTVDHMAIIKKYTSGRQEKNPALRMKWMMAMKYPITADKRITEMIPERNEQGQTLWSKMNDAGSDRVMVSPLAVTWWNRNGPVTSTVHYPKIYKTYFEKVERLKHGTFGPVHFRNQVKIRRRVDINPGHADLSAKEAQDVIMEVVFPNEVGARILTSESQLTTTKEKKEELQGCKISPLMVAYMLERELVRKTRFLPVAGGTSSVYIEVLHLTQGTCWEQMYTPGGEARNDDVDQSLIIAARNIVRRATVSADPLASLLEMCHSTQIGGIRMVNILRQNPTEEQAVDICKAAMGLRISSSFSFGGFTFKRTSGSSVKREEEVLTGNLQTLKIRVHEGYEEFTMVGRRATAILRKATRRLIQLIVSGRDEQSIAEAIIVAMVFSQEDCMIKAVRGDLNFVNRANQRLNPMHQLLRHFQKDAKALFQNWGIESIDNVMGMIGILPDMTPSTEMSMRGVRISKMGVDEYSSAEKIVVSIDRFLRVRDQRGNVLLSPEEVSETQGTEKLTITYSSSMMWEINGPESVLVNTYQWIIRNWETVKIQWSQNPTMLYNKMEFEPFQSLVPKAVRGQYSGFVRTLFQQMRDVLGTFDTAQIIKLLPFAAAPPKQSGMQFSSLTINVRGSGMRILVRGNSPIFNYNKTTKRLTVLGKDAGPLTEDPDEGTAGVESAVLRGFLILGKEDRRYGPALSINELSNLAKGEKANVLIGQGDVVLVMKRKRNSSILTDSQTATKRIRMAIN

Measured: binding

3×Flag-H1N1WSN PB2 (from UniProt P03427 1-759)
not listed: Gluc1-DCAF12L1 (human) | Gluc1-DCAF11 (human) | [7]
binds: all other assays above

3×Flag-PB2 C-terminal (Ct) domain (from UniProt P03427 248-759) (domain or fragment)
binds: Strep-DCAF11 (human) [4] | Strep-DCAF12L1 (human) [5] | Strep-DDB1 (human) [6]

3×Flag-PB2 N-terminal (Nt) domain (from UniProt P03427 1-247) (domain or fragment)
binds: Strep-DCAF11 (human) [4] | Strep-DDB1 (human) [6]

Gluc2-PB2 (from UniProt P03427 1-759)
binds: Gluc1-DCAF12L1 (human) | Gluc1-DCAF11 (human) | Strep-DDB1 (human) [3]

endogenous DDB1 (from UniProt Q16531 1-1140)
binds: [7]
